Results from PMC6478769.
These are yes or no findings as the source states them, for the method shown. Binding seen in cells or lysates may run through a third protein. Binding calls can cover weak binding; strength is not graded here. Where a sequence is shown, tags or fusion partners need not be part of it. Blank lines part the entries; values can stand above or below the molecule they belong to.

Protein sequences, listed by entry. Tags and fused reporters are not part of them. Lines headed by an entry give the natural chain unless they say otherwise; changes in a name come on top.
UniProt Q5F491: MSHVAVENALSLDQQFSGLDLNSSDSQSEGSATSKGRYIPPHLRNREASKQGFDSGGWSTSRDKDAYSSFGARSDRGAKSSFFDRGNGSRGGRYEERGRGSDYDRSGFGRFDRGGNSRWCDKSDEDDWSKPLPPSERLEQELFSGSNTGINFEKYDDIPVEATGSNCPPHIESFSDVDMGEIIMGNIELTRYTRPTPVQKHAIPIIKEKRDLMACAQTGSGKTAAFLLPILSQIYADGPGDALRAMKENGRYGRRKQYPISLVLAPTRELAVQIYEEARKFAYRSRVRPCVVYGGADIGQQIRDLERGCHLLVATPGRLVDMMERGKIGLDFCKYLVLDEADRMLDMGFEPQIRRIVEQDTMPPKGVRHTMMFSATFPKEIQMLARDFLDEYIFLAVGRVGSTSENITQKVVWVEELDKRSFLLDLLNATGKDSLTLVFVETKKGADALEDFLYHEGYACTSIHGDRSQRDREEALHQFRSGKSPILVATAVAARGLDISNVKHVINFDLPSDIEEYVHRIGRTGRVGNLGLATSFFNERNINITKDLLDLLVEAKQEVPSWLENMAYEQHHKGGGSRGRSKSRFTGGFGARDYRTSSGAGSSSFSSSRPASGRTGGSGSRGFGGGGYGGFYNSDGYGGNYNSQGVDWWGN

Assays:
[1] = biological target: T1, chicken STING, HA-tagged (pCMV-HA-chSTING) (chicken) (UniProt E1C7U0); assay: co-IP; reverse assay: DF-1 cells co-transfected with pcDNA3.1-chDDX3X-Flag and pCMV-HA-chSTING, 48 h; RIPA lysate precipitated with anti-HA affinity gel; blot with anti-Flag
T1 sequence: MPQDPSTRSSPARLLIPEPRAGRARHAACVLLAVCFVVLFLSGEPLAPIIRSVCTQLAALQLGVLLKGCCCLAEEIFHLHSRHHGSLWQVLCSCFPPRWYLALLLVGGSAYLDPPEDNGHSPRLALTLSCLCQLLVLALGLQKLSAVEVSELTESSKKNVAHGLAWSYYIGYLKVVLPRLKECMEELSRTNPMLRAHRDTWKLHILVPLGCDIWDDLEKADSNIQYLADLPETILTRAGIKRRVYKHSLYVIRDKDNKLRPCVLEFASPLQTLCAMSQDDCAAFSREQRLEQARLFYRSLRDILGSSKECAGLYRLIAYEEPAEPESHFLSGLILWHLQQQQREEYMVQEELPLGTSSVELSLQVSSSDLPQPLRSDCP

[2] = biological target: T2, chicken STING, Flag-tagged (pcDNA3.1-chSTING-Flag) (chicken) (UniProt E1C7U0); assay: co-IP
T2 sequence: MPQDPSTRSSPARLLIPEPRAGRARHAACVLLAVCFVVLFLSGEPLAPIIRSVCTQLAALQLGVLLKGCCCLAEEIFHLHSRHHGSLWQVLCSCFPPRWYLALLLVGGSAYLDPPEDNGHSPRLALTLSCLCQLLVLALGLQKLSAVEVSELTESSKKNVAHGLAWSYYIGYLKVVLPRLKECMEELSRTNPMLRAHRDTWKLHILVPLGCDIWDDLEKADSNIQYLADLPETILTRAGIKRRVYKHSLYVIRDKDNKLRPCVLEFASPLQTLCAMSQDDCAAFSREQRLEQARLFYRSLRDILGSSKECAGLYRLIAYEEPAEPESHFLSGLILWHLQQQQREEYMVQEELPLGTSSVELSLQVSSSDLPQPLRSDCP

[3] = biological target: chicken DDX3X, Flag-tagged (pcDNA3.1-chDDX3X-Flag) (chicken) (UniProt Q5F491); assay: co-IP; HEK 293T cells co-transfected with pcDNA3.1-chDDX3X-Flag and pCMV-HA-chSTING, 48 h; RIPA lysate precipitated with anti-Flag affinity gel 2 h at 4°C; blot with anti-HA
[4] = biological target: chicken DDX3X, Flag-tagged (pcDNA3.1-chDDX3X-Flag) (chicken) (UniProt Q5F491); assay: co-IP; DF-1 cells co-transfected with pcDNA3.1-chDDX3X-Flag and pCMV-HA-chSTING, 48 h; RIPA lysate precipitated with anti-Flag affinity gel 2 h at 4°C; blot with anti-HA

binding [1]: binds
Molecule: chicken DDX3X, Flag-tagged (pcDNA3.1-chDDX3X-Flag) (from UniProt Q5F491)

binding [2]: binds
Molecule: endogenous chicken DDX3X

binding [3]: binds
binding [4]: binds
B1: chicken STING, HA-tagged (pCMV-HA-chSTING) (protein, UniProt E1C7U0 1-379)
chain: MPQDPSTRSSPARLLIPEPRAGRARHAACVLLAVCFVVLFLSGEPLAPIIRSVCTQLAALQLGVLLKGCCCLAEEIFHLHSRHHGSLWQVLCSCFPPRWYLALLLVGGSAYLDPPEDNGHSPRLALTLSCLCQLLVLALGLQKLSAVEVSELTESSKKNVAHGLAWSYYIGYLKVVLPRLKECMEELSRTNPMLRAHRDTWKLHILVPLGCDIWDDLEKADSNIQYLADLPETILTRAGIKRRVYKHSLYVIRDKDNKLRPCVLEFASPLQTLCAMSQDDCAAFSREQRLEQARLFYRSLRDILGSSKECAGLYRLIAYEEPAEPESHFLSGLILWHLQQQQREEYMVQEELPLGTSSVELSLQVSSSDLPQPLRSDCP
